According to patent publication US20240209341A1 (University of California, published 2024):
No constants are given. Whether binding was seen depends on the method and setting. For part of these data: Binding seen in cells or lysates may run through a third protein. Some results given as binding are weak or reduced against the parent protein; the word gives no strength. Where a sequence is shown, tags or fusion partners need not be part of it.

Protein sequences, listed by entry. Tags and fused reporters are not part of them. Residues count along the entry.
UniProt O00206, residues 24-631: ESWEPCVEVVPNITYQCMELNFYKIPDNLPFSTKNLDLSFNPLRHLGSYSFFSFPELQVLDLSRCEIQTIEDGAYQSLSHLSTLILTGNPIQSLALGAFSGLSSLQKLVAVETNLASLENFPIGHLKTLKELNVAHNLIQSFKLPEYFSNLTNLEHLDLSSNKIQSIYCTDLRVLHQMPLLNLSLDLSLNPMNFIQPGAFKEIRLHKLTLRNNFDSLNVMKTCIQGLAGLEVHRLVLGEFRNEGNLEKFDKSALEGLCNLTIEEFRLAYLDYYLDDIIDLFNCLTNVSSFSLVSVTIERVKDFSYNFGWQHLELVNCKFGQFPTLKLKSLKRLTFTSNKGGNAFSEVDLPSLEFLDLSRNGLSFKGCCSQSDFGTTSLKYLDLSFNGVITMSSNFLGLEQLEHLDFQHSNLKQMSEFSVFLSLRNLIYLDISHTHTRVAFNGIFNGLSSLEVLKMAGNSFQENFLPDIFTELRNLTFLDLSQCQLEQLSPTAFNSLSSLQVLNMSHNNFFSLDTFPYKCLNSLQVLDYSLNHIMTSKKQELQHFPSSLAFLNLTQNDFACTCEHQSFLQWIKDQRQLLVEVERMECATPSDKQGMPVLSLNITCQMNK
UniProt P02647, residues 25-267: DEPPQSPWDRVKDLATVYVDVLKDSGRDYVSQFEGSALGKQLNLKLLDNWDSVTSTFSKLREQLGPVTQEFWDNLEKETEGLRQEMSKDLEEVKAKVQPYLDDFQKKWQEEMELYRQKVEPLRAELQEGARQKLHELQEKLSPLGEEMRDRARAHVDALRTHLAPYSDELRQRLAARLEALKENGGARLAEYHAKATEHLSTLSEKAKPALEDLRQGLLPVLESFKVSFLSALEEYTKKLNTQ

Key:
[1] = biological target: recombinant TLR4 ectodomain, His-tagged (Sino Biological) (human) (UniProt O00206); experiment: pull-down with BE-1 antibody; ELISA on eTLR4-coated plates
human APOA1 = biological target: T1, human APOA1 (human, UniProt P02647 25-267); experiment: ELISA, AIBP-coated plates incubated with 5 µg/ml human APOA1
T1 construct: also called ApoA-I
Method: ELISA binding assays. To assess AIBP-TLR4 binding, 96-well plates were coated with 5 μg/ml of eTLR4, washed three times with PBS containing 0.05% Tween-20, blocked with PBS containing 1% BSA, and incubated with wtAIBP or mutAIBP, followed by 2 μg/ml of a biotinylated BE-1 anti-AIBP monoclonal antibody. To assess AIBP-APOA1 binding, plates were coated with BSA, wtAIBP or mutAIBP, washed, blocked, and incubated with 5 μg/ml of human APOA1 (a gift from Dmitri Sviridov, Baker Heart and Diabetes Institute, Melbourne, Australia), followed by a biotinylated anti-APOA1 antibody (Academy Bio-Medical Company, RRID:AB_1238781). In both assays, neutravidin-AP was added and incubated for 45 minutes at room temperature, followed by LumiPhos 530 (Lumigen) for 90 min, and luminescence was measured using a luminescence plate reader (BioTek, Winooski, Vermont).
FIG. 9: Identifies sequence motifs that contribute to AIBP binding to TLR4: FIG. 9. Identification of the domain in the AIBP molecule responsible for TLR4 binding. A, Human AIBP: signal peptide (aa 1-24), previously uncharacterized N-terminal domain (aa 25-51), and YjeF_N domain (aa 52-288). […] IP of eTLR4 and wtAIBP or mutAIBP in a test tube with an anti-AIBP antibody; blot and quantification from 3 independent experiments (D). […]

[2] = biological target: recombinant TLR4 ectodomain, His-tagged (Sino Biological) (human) (UniProt O00206); experiment: test-tube co-IP with anti-TLR4 antibody, immunoblot with anti-His antibody

- binding [1]: binds
- binding (human APOA1): binds
- binding [2]: binds
B1: His-tagged wild type (wt, 25-288 aa) human AIBP (protein)
chain: MSPIDPMGHHHHHHGRRRASVAAGILVPRGSPGLDGICSRQTIACRSGPTWWGPQRLNSGGRWDSEVMASTVVKYLSQEEAQAVDQELFNEYQFSVDQLMELAGLSCATAIAKAYPPTSMSRSPPTVLVICGPGNNGGDGLVCARHLKLFGYEPTIYYPKRPNKPLFTALVTQCQKMDIPFLGEMPAEPMTIDELYELVVDAIFGFSFKGDVREPFHSILSVLKGLTVPIASIDIPSGWDVEKGNAGGIQPDLLISLTAPKKSATQFTGRYHYLGGRFVPPALEKKYQLNLPPYPDTECVYRLQ
